PubChem BioAssay AID504467 (National Center for Advancing Translational Sciences (NCATS), 2011)
The whole screen tested about 330,000 compounds, of which about 7,700 (2.3%) were called active. Inconclusive results, whose numbers are uncertain, are shown with a selection of clear calls. Calls come from the whole dose curve; as a rule, active = well fitted inhibition curve with a large enough effect; inconclusive = small, poorly fitted or top-dose-only effect, or effect the other way; inactive = flat fitted curve, though single readings scatter. Where the call is inconclusive, the potency comes from a doubtful curve fit.

Test: qHTS screen for small molecules that inhibit ELG1-dependent DNA repair in human embryonic kidney (HEK293T) cells expressing luciferase-tagged ELG1; note: nearly all actives have a fitted effect of over 55% in size
Conditions: HEK293T ELG1-luciferase reporter, luminescence, 16 h, DNA damage induced by 5-fluorouridine; series mostly up to 46.1 µM
Method in brief: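 Cells (2,000 per well) received 5-fluorouridine plus test compound or DMSO and were incubated 16 hr at 37 °C, 5% CO2. Luciferase activity was read by luminescence 30 min after ONE-Glo addition; signal suppression marked inhibition of damage-induced ELG1 function.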
Potency is the fitted concentration of half-maximal effect.

SMILES	Potency
CCN(CC)c1ccc(-n2c(O)c(C=C3N=c4ccccc4=N3)sc2=S)cc1	inactive
COc1ccc2c(C)c(CC(=O)N3CCN(C(=O)C4COc5ccccc5O4)CC3)c(=O)oc2c1C (centres undefined)	inconclusive: 4.61 µM [inhibitor, full curve]
CC(C)C(=O)N(Nc1nc2ccccc2s1)C(=O)C(C)C	inactive
Cc1cccc(N2CCN(C(=O)Cn3nc(C)n4cccc4c3=O)CC2C)c1 (centres undefined)	inactive
Cc1cc(C)c(S(=O)(=O)N2CCN(C(=O)c3cccs3)CC2)c(C)c1	inconclusive: 20.6 µM [inhibitor, partial curve]
CN(C)/C=C/C(=O)c1ccc([N+](=O)[O-])c(CS(=O)(=O)c2ccc(Cl)cc2)c1	inconclusive: 29.1 µM [inhibitor, single point]
CC(NC(=O)Cc1cccs1)C(c1cccs1)N1CCN(c2ccccc2F)CC1 (centres undefined)	inactive
COc1cc(C(=O)NCC2CCCCC2)ccc1OCc1c(C)noc1C	inconclusive: 14.6 µM [activator, partial curve, poor fit]
CCc1ccccc1N1CC(C(=O)Nc2cc(S(=O)(=O)N3CCCC3)ccc2Cl)CC1=O (centres undefined)	inconclusive: 16.4 µM [inhibitor, single point]
CCn1nc(C)c(Br)c1Nc1ccc(Br)cc1	inactive
COc1ccccc1Oc1ccc2c(c1)C(=O)N(c1ccc(Br)c3cccnc13)C2=O	inconclusive: 25.9 µM [inhibitor, single point]
CC(C)(C)NC(=S)Nc1cccc(C(F)(F)F)c1	active: 11.6 µM
C#CCOCCOCCOCCNc1nc(N2CCN(C(=O)CCCCCCCCCCNC(=O)[C@H](CCCCN)n3cc(C)nn3)CC2)nc(N2CCN(C(=O)CCCCCCCCCCNC(=O)[C@H](CO)n3cc(CCCSC)nn3)CC2)n1	inconclusive: 14.1 µM [inhibitor, single point]
CC1CN(c2ccc(S(=O)(=O)N3CCCC3)cn2)CC(C)O1 (centres undefined)	inconclusive: 23.1 µM [activator, partial curve]
COc1ccc(NC(=O)COC(=O)c2c(F)cccc2Cl)cc1OC	inconclusive: 20.6 µM [activator, partial curve]
NC(=O)CC[C@H](NC(=O)c1ccc(F)cc1)C(=O)N1CCN(Cc2ccc3c(c2)OCO3)CC1	inactive
O=C1CC(c2ccccc2)Sc2nc3ccccc3n21 (centres undefined)	inconclusive: 20.6 µM [activator, partial curve]
CCCc1nnc(NC(=O)CCC(=O)NCc2ccc(Cl)cc2Cl)s1	inconclusive: 14.6 µM [activator, single point]
Cc1ccc(C2=NS(=O)(=O)N(C)C(C(=O)N(C)C3CCCCC3)=C2)cc1	inconclusive: 0.146 µM [inhibitor, full curve, poor fit]
COc1ccccc1N1CCN(C(=O)c2cc(-c3ccc4c(c3)OCO4)on2)CC1	inactive
COc1ccccc1C1CC(c2cccs2)=NN1C(=O)CCC(=O)O (centres undefined)	inactive
Cc1ccc(NS(=O)(=O)c2ccc(OCC(N)=O)cc2)cc1	inactive

Reformatted in markdown: entries from further up.

| SMILES | Potency |
| --- | --- |
| Cc1cc(C)c(S(=O)(=O)N2CCN(C(=O)c3cccs3)CC2)c(C)c1 | inconclusive: 20.6 µM [inhibitor, partial curve] |
| CN(C)/C=C/C(=O)c1ccc([N+](=O)[O-])c(CS(=O)(=O)c2ccc(Cl)cc2)c1 | inconclusive: 29.1 µM [inhibitor, single point] |

Continued.

SMILES	Potency
Cc1ccc(NCc2nc3ccccc3n2C)cc1	inconclusive: 1.58 µM [activator, full curve, poor fit]
CS(=O)(=O)c1ccc(Cl)c(NC(=O)C2CCN(S(=O)(=O)c3cccs3)CC2)c1	inactive
Cc1ccc(NC(=O)c2cc(=O)c3ccccc3o2)c(C)c1	inconclusive: 5.8 µM [activator, full curve, poor fit]
CC(C)(C)OC(=O)CNC(=O)c1[nH]cnc1C(=O)Nc1ccc(CNC(=O)OC(C)(C)C)cc1	inconclusive: 8.2 µM [inhibitor, partial curve, poor fit]
O=C(NCCc1ccccc1)c1ccc(CS(=O)(=O)Cc2ccccc2F)o1	inconclusive: 29.1 µM [inhibitor, single point]
O=C(Nc1ccc(N2CCOCC2)c([N+](=O)[O-])c1)c1ccco1	inconclusive: 23.1 µM [activator, single point]
CCN(C(=O)c1ccco1)c1nc(-c2ccc(OC)cc2)cs1	inconclusive: 23.1 µM [activator, single point]
CCc1ccc(NC(=O)NCC2CCN(Cc3cccc(Cl)c3)CC2)cc1	inactive
COc1ccc(OC)c(C(=O)COC(=O)CNC(=O)c2ccccc2)c1	inactive
O=C(O)c1ccccc1C(=O)NCc1ccccc1	inactive
CCC(C)NC(=O)C1CCC(CNS(=O)(=O)c2ccc3c(c2)N(C(C)=O)CCO3)CC1 (centres undefined)	inactive
COc1cc2ccccc2cc1C(=O)Nc1ccc(N2CCN(C(=O)C(C)C)CC2)cc1	inconclusive: 29.1 µM [inhibitor, single point]
CSc1ccccc1NC(=O)c1ccc(CN2CCOCC2)cc1	inconclusive: 18.3 µM [activator, partial curve]
N#CCCCC#Cc1ccc2c(c1)COc1c3ccccc3nn1-2	inconclusive: 0.562 µM [activator, partial curve, poor fit]
COc1ccc(CCNC(=O)C(=O)NCC2OCCN2S(=O)(=O)c2cc(F)ccc2F)cc1OC (centres undefined)	inconclusive: 18.3 µM [inhibitor, partial curve, poor fit]
CN(CC1COCCO1)C(=O)c1cc(COc2c(F)cccc2F)on1 (centres undefined)	inconclusive: 25.9 µM [activator, partial curve]
O=C(CN1CCN(c2ccc(O)cc2)CC1)Nc1ccc2c(c1)OCCCO2	active: 18.3 µM
COc1ccccc1N(CC(=O)NCc1ccccc1C)S(=O)(=O)c1ccc(C)cc1	inconclusive: 18.3 µM [inhibitor, single point]
CCN1CCN(CC#CCOc2ccccc2OC)CC1	inconclusive: 35.5 µM [activator, single point]
CCCCCCn1c(NCC)nc2c1c(=O)n(C)c(=O)n2C	active: 5.8 µM
Cc1ccc(S(=O)(=O)NCc2ccc(C(=O)NCc3cccnc3)cc2)cc1	inactive
Cc1cccc(NC(=S)N/N=C2\CC(C)(C)Oc3ccc(O)cc32)c1	inconclusive: 23.1 µM [inhibitor, partial curve]
